# Assay results reported in PubChem BioAssay (EPA / NIEHS).
# Chains of the proteins cited; added tags and fusions are not shown. Lines headed by an entry give the natural chain unless they say otherwise; changes in a name come on top.
# UniProt P04798: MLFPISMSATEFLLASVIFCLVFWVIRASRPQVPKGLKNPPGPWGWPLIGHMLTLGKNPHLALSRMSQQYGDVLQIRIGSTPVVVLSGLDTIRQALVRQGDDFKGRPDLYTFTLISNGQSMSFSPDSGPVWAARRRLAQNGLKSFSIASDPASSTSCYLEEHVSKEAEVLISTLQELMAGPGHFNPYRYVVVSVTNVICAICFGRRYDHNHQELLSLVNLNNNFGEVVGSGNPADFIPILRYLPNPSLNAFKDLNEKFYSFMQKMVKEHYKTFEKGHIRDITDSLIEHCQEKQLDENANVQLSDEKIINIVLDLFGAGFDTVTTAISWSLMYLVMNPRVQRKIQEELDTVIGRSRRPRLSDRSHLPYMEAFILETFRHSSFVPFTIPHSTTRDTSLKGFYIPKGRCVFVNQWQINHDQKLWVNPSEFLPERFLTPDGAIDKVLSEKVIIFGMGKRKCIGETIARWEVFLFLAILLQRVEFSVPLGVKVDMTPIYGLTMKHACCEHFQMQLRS
# UniProt P08173, whole entry, looked up: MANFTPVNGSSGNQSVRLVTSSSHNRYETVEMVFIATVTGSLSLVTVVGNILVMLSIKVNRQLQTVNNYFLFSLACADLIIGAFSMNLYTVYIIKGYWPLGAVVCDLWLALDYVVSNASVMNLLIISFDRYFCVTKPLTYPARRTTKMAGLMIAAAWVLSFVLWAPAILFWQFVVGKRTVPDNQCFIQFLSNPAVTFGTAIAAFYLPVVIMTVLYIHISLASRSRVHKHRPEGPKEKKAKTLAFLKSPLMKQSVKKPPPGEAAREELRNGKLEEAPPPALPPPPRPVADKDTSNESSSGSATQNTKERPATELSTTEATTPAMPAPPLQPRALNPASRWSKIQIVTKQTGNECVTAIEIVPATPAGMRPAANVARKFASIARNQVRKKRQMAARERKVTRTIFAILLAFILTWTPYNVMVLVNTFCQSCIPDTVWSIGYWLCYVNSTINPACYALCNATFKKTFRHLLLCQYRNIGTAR
# UniProt P03372, whole entry, looked up: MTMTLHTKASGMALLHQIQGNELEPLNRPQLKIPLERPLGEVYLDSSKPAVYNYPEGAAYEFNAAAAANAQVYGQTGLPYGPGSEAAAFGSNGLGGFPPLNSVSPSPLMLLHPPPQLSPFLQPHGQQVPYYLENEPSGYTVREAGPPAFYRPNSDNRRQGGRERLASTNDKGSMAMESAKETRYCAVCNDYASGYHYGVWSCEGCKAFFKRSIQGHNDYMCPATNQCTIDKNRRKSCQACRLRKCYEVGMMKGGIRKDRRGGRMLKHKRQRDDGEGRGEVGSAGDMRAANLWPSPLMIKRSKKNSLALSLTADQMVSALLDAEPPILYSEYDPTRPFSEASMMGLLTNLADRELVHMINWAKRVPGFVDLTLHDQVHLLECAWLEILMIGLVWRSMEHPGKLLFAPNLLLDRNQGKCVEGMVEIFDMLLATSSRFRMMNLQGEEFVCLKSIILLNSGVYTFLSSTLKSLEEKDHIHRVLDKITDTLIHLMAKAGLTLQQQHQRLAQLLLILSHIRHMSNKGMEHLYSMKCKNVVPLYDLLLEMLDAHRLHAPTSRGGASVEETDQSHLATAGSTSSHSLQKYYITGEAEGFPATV
# UniProt P11511: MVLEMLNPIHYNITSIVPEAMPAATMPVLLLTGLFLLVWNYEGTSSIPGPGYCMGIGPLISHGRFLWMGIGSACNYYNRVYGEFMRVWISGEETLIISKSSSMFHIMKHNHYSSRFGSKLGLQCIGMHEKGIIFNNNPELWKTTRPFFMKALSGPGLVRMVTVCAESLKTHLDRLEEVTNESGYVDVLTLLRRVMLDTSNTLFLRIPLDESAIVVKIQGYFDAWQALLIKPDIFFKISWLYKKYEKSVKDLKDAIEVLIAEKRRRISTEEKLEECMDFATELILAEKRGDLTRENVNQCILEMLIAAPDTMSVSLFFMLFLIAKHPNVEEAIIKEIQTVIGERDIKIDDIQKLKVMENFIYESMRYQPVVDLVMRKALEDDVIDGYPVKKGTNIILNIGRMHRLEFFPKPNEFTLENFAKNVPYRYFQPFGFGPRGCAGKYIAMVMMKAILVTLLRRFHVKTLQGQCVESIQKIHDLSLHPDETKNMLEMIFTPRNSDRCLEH
# UniProt P31751: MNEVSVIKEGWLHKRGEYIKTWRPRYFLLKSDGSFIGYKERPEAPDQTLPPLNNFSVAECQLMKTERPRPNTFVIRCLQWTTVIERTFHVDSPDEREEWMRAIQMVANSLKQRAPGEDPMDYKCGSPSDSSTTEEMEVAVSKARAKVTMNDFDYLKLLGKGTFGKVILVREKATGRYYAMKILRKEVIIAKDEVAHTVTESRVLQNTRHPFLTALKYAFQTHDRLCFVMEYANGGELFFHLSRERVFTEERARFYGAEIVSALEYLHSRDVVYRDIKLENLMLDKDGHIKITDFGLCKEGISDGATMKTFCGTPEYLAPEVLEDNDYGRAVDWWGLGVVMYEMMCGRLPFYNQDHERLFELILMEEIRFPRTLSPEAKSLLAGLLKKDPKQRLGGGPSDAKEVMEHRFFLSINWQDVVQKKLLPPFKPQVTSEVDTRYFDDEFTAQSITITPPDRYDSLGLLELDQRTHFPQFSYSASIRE
# UniProt P21728, whole entry, looked up: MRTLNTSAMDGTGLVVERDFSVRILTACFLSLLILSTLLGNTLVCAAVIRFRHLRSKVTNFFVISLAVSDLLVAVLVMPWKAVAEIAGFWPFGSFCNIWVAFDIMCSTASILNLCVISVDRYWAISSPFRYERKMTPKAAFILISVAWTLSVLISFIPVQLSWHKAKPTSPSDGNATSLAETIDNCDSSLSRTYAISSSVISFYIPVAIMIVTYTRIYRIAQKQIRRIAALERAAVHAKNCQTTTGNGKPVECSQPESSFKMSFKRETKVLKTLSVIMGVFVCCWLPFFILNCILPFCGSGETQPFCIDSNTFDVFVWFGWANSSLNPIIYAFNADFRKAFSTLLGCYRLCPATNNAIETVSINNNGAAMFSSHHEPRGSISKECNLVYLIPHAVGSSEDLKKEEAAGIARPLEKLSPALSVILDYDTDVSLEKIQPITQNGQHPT
# UniProt Q92731, whole entry, looked up: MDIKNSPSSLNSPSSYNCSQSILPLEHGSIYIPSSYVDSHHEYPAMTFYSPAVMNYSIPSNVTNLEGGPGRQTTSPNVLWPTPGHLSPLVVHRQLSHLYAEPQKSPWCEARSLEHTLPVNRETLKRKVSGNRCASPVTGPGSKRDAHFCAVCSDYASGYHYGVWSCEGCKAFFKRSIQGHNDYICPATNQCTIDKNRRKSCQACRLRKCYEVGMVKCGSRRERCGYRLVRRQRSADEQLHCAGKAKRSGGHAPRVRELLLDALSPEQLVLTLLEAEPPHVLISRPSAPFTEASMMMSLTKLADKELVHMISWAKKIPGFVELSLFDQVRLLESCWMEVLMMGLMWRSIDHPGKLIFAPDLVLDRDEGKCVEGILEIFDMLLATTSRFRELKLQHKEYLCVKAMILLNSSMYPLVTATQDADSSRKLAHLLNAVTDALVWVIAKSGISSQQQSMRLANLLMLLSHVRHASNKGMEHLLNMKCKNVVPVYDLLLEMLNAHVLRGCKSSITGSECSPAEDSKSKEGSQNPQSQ
# UniProt P49841: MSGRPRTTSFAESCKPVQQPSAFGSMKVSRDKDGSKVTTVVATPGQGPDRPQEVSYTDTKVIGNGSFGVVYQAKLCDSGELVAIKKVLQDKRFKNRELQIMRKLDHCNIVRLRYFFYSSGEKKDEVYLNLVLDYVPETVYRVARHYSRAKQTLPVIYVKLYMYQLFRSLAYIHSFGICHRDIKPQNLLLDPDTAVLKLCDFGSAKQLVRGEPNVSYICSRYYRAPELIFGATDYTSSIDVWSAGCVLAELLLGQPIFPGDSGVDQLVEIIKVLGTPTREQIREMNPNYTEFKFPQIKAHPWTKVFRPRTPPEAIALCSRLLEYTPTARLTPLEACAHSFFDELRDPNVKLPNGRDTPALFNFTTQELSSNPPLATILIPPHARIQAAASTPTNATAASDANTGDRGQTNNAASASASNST
# UniProt P13945: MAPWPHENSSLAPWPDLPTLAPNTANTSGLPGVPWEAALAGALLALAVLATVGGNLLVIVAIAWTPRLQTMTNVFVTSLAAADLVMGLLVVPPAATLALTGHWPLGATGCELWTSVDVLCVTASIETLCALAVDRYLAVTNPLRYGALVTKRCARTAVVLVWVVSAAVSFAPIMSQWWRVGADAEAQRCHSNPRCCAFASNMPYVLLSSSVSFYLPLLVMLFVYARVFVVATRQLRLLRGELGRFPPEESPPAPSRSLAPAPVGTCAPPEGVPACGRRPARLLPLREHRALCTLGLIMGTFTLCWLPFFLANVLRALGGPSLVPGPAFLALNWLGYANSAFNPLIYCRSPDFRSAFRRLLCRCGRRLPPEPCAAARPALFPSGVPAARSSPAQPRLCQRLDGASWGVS
# UniProt P08219: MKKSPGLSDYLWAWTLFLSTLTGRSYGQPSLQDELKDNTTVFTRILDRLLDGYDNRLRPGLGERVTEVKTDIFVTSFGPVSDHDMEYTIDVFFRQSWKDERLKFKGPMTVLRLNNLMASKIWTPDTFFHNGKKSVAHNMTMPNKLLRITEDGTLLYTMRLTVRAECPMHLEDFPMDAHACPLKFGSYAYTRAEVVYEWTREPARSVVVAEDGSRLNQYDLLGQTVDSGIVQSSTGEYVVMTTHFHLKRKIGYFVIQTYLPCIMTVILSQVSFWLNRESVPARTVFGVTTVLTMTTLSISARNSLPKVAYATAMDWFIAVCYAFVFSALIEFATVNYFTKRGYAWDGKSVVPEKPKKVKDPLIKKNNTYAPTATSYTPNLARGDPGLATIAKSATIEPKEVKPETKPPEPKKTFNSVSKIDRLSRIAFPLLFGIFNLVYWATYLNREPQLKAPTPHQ
# Inconclusive means that the source gave no clear call. Such entries were picked first, then a sample of the others. For part of these data: Potencies beside an inconclusive call are fits to weak or partial responses and may not hold up. Calls of active or inactive are those of the source. The calls were made as follows: active = hit-call score of the fitted dose curve at least 0.9, where 1 is the maximum; inconclusive = response in the unintended direction; inactive = score below 0.9.
# Legend:
# [1] = biological target: human CYP1A1, CYP1A1 (gene 1543) (UniProt P04798); experiment: NVS_ADME_hCYP1A1: NovaScreen (NVS) CYP450-related Enzyme Activity (ADME) Assay for human CYP1A1 (AID 2283100)
# How it was run: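 Inhibition of recombinant CYP1A1 turnover was assessed fluorometrically in a biochemical format 1 h after compound exposure. Testing began at 10 uM in duplicate and progressed to concentration series reaching 20 uM, with on-plate positive and negative controls.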
# [2] = biological target: human Muscarinic, M4 Receptor, CHRM4 (gene 1132) (UniProt P08173); experiment: NVS_GPCR_hM4: NovaScreen (NVS) G Protein-Coupled Receptor Assay for human Muscarinic, M4 Receptor (AID 2283274)
# How it was run: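 Cell-free radioligand displacement using CHO-derived human M4 receptor protein, 1 h after dosing; bound radioactivity by filtration and scintillation counting. Primary screen single 25 uM duplicate, actives followed in concentration series.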
# [3] = biological target: Estrogen receptor (Homo sapiens) (UniProt P03372); experiment: CCTE_Deisenroth_AIME_384WELL_LUC_Inactive: CCTE's 384-well Estrogen Receptor Transactivation Assay without AIME metabolic competence (ERTA luciferase; metabolism negative), Deisenroth Lab (AID 2284038);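 also: VM7Luc4E2 breast cells given medium preincubated 2 h with S9-free microspheres; hits raise estrogen receptor luciferase signal so potencies reflect agonists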
# How it was run: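 Metabolism-negative mode: chemicals (10-point, 0.002–200 uM) held 2 h with alginate-water microspheres, then conditioned medium applied to VM7Luc4E2 cells for 24 h. Luciferase induction referenced to 17beta-estradiol.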
# [4] = biological target: human CYP19A1, CYP19A1 (gene 1588) (UniProt P11511); experiment: NVS_ADME_hCYP19A1: NovaScreen (NVS) CYP450-related Enzyme Activity (ADME) Assay for human CYP19A1 (AID 2283098);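 also: potency for inhibitors seen as loss of fluorescent enzyme signal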
# How it was run: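 Cell-free enzyme assay with recombinant protein and a specific fluorogenic substrate, read by fluorescence intensity 0.5 h after dosing. Primary screen ran in duplicate at 10 uM; actives were retested in concentration series. Loss of signal versus acetonitrile baseline.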
# [5] = biological target: human AKT serine/threonine Kinase 2 (AKT2), AKT2 (gene 208) (UniProt P31751); experiment: NVS_ENZ_hAKT2: NovaScreen (NVS) Enzymatic Assay for human AKT serine/threonine Kinase 2 (AKT2) (AID 2283141)
# How it was run: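 Cell-free fluorescence/electrophoretic mobility shift readout of recombinant human AKT2 activity, 1 h after chemical dosing. Duplicate primary screen at 25 uM, then singleton concentration-response up to 50 uM; loss of signal versus DMSO baseline.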
# [6] = biological target: D(1A) dopamine receptor (Homo sapiens) (UniProt P21728); experiment: NVS_GPCR_hDRD1: NovaScreen (NVS) G Protein-Coupled Receptor Assay for human Dopamine Receptor D1 (DRD1) (AID 2283269)
# How it was run: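 HEK293-derived receptor preparation; radioligand competitive displacement; 1 h; filtration + scintillation counting. DMSO = negative control/baseline. Primary: 25 uM, duplicate; secondary: concentration–response for actives.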
# [7] = biological target: Estrogen receptor (Homo sapiens) + Estrogen receptor beta (Homo sapiens) (UniProt P03372+Q92731); experiment: OT_ER_ERaERb_0480: Odyssey Thera (OT) 8-hour HEK293T Protein-Complementation Assay for Estrogen Receptor-alpha/-beta Heterodimer (AID 2283352)
# How it was run: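 Human HEK293T cells were treated for 8 hours and receptor heterodimerisation was detected through reconstitution of a fluorescent reporter split between ER-alpha and ER-beta ligand-binding domains. Activity was analysed as gain of signal against DMSO.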
# [8] = biological target: Glycogen synthase kinase-3 beta (Homo sapiens) (UniProt P49841); experiment: NVS_ENZ_hGSK3b: NovaScreen (NVS) Enzymatic Assay for human Glycogen Synthase Kinase-3 beta (GSK3b) (AID 2283165)
# How it was run: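 Recombinant enzyme with specific fluorescent substrate, 1 h, product separated by electrophoretic mobility shift. Primary duplicate screen at 25 uM; actives (e.g. 30% inhibition) followed in singleton concentration-response to 50 uM. Signal loss fitted versus DMSO.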
# [9] = biological target: human Adrenergic, Beta 3 Receptor (Adrb3), ADRB3 (gene 155) (UniProt P13945); experiment: NVS_GPCR_hAdrb3: NovaScreen (NVS) G Protein-Coupled Receptor Assay for human Adrenergic, Beta 3 Receptor (Adrb3) (AID 2283262)
# How it was run: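 Membranes from SK-N-MC cells pretreated with isoproterenol and 8-bromo-cAMP were used in a radioligand competitive displacement binding assay. Binding was read by filter-based scintillation counting 1 hour after dosing. Primary screening was in duplicate at 25 uM, with concentration series in follow-up.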
# [10] = biological target: bovine Gamma-Aminobutyric Acid Type A Receptor Agonist (GABAR Agonist), GABRA1 (gene 780973) (UniProt P08219); experiment: NVS_LGIC_bGABAR_Agonist: NovaScreen (NVS) Ligand-Gated Ion Channel Assay for bovine Gamma-Aminobutyric Acid Type A Receptor Agonist (GABAR Agonist) (AID 2283338)
# How it was run: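 Radioligand binding to bovine cerebellar membranes in agonist format, read by filter-based scintillation counting after 1 h. Primary screen in duplicate at 25 uM, with actives followed in concentration series. Gain of signal versus DMSO.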
# [11] = read-out: alkyl and aryl transferase (GSTA2), GSTA2 (gene 2939); experiment: CLD_GSTA2_24hr: CellzDirect (CLD) Gene Expression Assay for alkyl and aryl transferase (GSTA2) at 24 hours (AID 2283693)
# How it was run: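 Primary human hepatocytes (two donor preparations) dosed daily for two days with chemicals at multiple concentrations (vehicle 0.2% DMSO); GSTA2 mRNA at 24 h measured by qNPA chemiluminescence, gain-of-signal versus DMSO.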
# [12] = CCTE_Mundy_HCI_hN2_NOG_NeuronCount: CCTE's Neurite Outgrowth Assay in human hN2 cells for Neuron Count, Mundy Lab (AID 2284221)
# How it was run: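 Read-out is the number of betaIII-tubulin-positive neurons imaged by automated high-content analysis, with DMSO as negative control.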
smiles,measurement,setting,value
CCN(CC)CCO,AC50,[1],inconclusive: 0.157 µM
same,outcome,[2],inactive
COc1ccc(C=O)cc1,outcome,[3],inactive
CCCCCCCCOC(=O)c1ccc(C(=O)OCCCCCCCC)c(C(=O)OCCCCCCCC)c1,AC50,[4],inconclusive: 10.1 µM
same,AC50,[1],inconclusive: 10.1 µM
Cc1ccc(N)c(N)c1,AC50,[1],inconclusive: 10 µM
same,outcome,[5],inactive
Cc1c([N+](=O)[O-])cc2c(c1[N+](=O)[O-])C(C)(C)CC2(C)C,AC50,[6],inconclusive: 0.119 µM
CN(C)c1ccc(C(=O)c2ccc(N(C)C)cc2)cc1,AC50,[1],inconclusive: 0.175 µM
O=c1n(Cl)c(=O)n(Cl)c(=O)n1Cl,AC50,[7],inconclusive: 50 µM
O=P(OCCCl)(OCCCl)OCCCl,AC50,[8],inconclusive: 25 µM
O=[N+]([O-])C=Cc1ccccc1,AC50,[6],active: 8.25 µM
O=C(O)c1c(Cl)ccc2cc(Cl)cnc12,outcome,[9],inactive
CN(C)C(=O)Nc1ccc(Cl)cc1,outcome,[5],inactive
same,outcome,[10],inactive
Nc1ncn[nH]1,AC50,[4],inconclusive: 10 µM
CCCSP(=O)(OCC)Oc1ccc(Br)cc1Cl (stereo not drawn),AC50,[11],inconclusive: 3.97 µM
same,outcome,[12],inactive

# Shown with bars between the fields: part of the list above.
smiles | measurement | setting | value
Cc1c([N+](=O)[O-])cc2c(c1[N+](=O)[O-])C(C)(C)CC2(C)C | AC50 | [6] | inconclusive: 0.119 µM
CN(C)c1ccc(C(=O)c2ccc(N(C)C)cc2)cc1 | AC50 | [1] | inconclusive: 0.175 µM
